Experimental findings from paper PMC2481302 are described below.

This test has as its target T1, CXCL4/CTF, synthetic peptide encompassing amino-acid sequence 47-70 of CXCL4 (human).
T1 sequence (peptide): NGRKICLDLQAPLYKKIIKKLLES
Nature of the test: ELISA; solid-phase ligand-binding assay; Immulon 2 wells coated with 25 µg/ml CXCL4 or CXCL4/CTF in PBS overnight at 4°C, blocked with 1% BSA in Walsh buffer; octylglucoside αvβ3 integrin added for 2 h at 37°C (legend: overnight at 4°C); bound integrin detected with polyclonal anti-αv cytoplasmic domain antibody, peroxidase anti-rabbit IgG and TMB; soluble RGD or RGE peptides or anti-integrin antibodies added to block; both purified.

No constants are given. Whether binding was seen depends on the method and setting. Binding can be weak; no strength is given.

As for “purified human integrin αvβ3 (octylglucoside αvβ3 integrin) (complex)”, the binding entry was “binds”.
